Measurements taken from US11999758B2, “Inhibitors of the YAP/TAZ-TEAD interaction and their use in the treatment of cancer” (INVENTIVA, priority 2018, dated 2024).
For at least one compound, name, drawing or mass did not settle the structure.

Key:
[1] = system: Met5A cell line; experiment: Cell proliferation in YAP-independent cell line (EdU); assay type: cell-based; conditions: FIG. 1 (▪)
Method: (§1) The tumor cell growth inhibitory activity of the YAP-TEAD interaction inhibitors was evaluated in NCI-H-2052 mesothelioma cell line harboring a NF2 mutation. This cell line was selected based on its mutational status and the ability of a siRNA directed against YAP, TAZ or TEAD1-4 to inhibit cell proliferation. The nuclear localization of YAP at confluence was also taken into account. Based on these observations we were able to classify several “YAP dependent cells” where YAP is clearly nuclear and in which a cell growth inhibition is observed by using siRNA (NCI-H-2052, SKOV-3, ACHN, A549) and the “YAP independent cells” where YAP is preferentially located in the cytoplasm and in which no inhibition of cell growth is observed by using a siRNA (SW620, Met-5a). […] After one day growth in the starvation medium, cells were incubated with compounds. […] Image acquisition was performed using the ImageXpress Micro and analyzed using the MetaXpress software (Molecular Device). Results were expressed as a percent of inhibition (%) of the cell proliferation values obtained with 0.5% DMSO treatment alone. The cellular response was determined by fitting the concentration response curves using a 3 parameter curve fit equation and determining the concentration that inhibited cell growth between 50% and 100%.

[2] = system: NCI-H2052 mesothelioma cell; experiment: Inhibition of malignant mesothelioma tumor cell growth (EdU proliferation); assay type: cell-based; conditions: NF2 mutated cell line; FIG. 1 (x)
Method: as §1

SMILES: COCCN(/N=C/c1ccc(B(O)O)c(OC)c1)C1=NS(=O)(=O)c2ccccc21 [Ex 5, [4-[(E)-[(1,1-dioxo-1,2-benzothiazol-3-yl)-(2-methoxyethyl)-hydrazono]methyl]-2-methoxy-phenyl]boronic acid]
- effect in the Met5A cell line [1]: without showing any effect
- NCI-H2052 mesothelioma cell proliferation [2]: inhibited
